# Over roughly 33,000 sequences, “E-score (-0.5 to 0.5)” has its median near -0.015; the highest 2% begin near 0.3. The list shows a part of the results.
# Molecular target: T1, Abf1 (UniProt P14164)
# T1 sequence: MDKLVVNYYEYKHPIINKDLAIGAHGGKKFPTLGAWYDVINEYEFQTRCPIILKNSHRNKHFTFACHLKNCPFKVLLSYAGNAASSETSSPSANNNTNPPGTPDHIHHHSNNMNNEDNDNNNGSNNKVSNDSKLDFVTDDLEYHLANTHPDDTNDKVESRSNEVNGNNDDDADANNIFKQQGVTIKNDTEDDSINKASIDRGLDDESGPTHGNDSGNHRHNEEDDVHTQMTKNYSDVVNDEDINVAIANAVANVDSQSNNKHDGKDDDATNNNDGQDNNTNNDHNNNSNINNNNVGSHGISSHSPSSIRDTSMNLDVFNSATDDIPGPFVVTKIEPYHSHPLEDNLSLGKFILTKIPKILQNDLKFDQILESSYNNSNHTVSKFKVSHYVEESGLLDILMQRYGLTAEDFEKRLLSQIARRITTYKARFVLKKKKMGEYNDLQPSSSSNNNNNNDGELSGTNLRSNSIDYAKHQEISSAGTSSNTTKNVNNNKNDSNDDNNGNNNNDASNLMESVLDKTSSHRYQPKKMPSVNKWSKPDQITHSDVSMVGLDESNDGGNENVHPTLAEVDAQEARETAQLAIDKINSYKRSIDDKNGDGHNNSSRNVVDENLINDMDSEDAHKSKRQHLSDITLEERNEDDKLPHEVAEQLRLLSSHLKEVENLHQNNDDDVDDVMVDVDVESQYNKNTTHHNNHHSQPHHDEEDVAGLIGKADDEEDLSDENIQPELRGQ
# Experiment: PBM E-score (8-mer binding enrichment) (E-score (-0.5 to 0.5)); higher = stronger / more preferred TF binding
# Conditions: protein concentration: 200 nM; construct: GST-full length
# Summary of the method: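 Masliner-normalised scans of fluorescent anti-GST signal were the basis for scoring. That signal came from GST-tagged yeast transcription factors applied at about 100-200 nM to double-stranded universal all-10-mer Agilent arrays on fresh or once-stripped slides. Each ungapped eight-base word, pooled with its reverse complement, received an E-score from the Universal PBM Analysis Suite.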
row,Sequence,PBM E-score
1,ATATGCCG,0.174
2,AGTAGCTC,-0.138
3,GGAACTCC,-0.154
4,ACTGGACT,-0.0415
5,CACCTCGG,-0.143
6,TACATGAA,-0.0145
7,CACAGACG,0.103
8,GTCCTGTA,0.00173
9,GACATAAA,0.185
10,GTATCCTA,0.146
11,AGGACATA,0.0984
12,CGAGTGCG,0.098
13,AGAGACTC,-0.00594
14,CTAGAGTC,-0.226
15,GTGTAAAC,-0.0109
16,ATGTATCG,0.211
17,ATCAGGTG,0.0231
18,CTAAAGCA,0.0813
19,AAGGCATC,-0.158
20,ACGTTTGG,-0.0459
21,ACACTGCA,-0.14
22,ACCGGGGA,-0.293
23,CTTCTTCC,-0.271
24,TGAGATCA,0.268
25,AGCCAACC,-0.111

row,Sequence,PBM E-score
1,AAGACGAC,0.164
2,AATCAAAT,0.0492
3,ATTTAACA,0.0814
4,AGAAAGGA,-0.228
5,ACCAGAAC,-0.0176
6,ATACTCAT,0.0261
7,CGCGTCAG,-0.106
8,GAGAGGAA,-0.111
9,CGGAAAAA,0.058
10,AACTGTGG,-0.183
11,CCAATTCC,-0.00888
12,ATTATCGC,0.295
13,AGGCAGGC,-0.18
14,ATGGACAA,0.119
15,AGGGTATG,-0.123
16,CCCCGGGG,-0.261
17,GAAGCACA,-0.0155
18,CAATCCCG,-0.103
19,ATACCGTG,0.201
20,ACTACTTG,-0.00073
21,ATTTCTAC,0.0648
22,AACTTAAC,0.112
23,GCACGTGA,0.0942
24,CATTCAGA,-0.00928
25,ATCCGCTA,0.0201

row,Sequence,PBM E-score
1,GCGTGTCC,-0.0159
2,ACACATGT,0.036
3,CATTAACG,0.0059
4,AAGAATCA,-0.00225
5,ACCTGGGC,-0.278
6,GGTTGAAC,0.037
7,ATATCACG,0.401
8,CGCATAAA,0.169
9,CCTGATTC,-0.0368
10,ATTAAGAC,-0.00422
11,TGTACACA,0.0657
12,ACCCCGGA,0.00074
13,GCACTCAA,-0.288
14,AGCACCGA,0.162
15,ATACTGGA,0.157
16,AAAAGGCA,0.0834
17,AAAGTGCT,0.0641
18,CTGACAAA,0.0266
19,CAACCACA,0.135
20,AAAGGATT,-0.105
21,ACATAGAC,-0.0915
22,ACACATCC,0.0452
23,GACTGCAA,-0.172
24,CGCCCCGC,-0.238
25,GGTGTTGA,-0.0204

# Retrieved one by one from above, 2 records:
row,Sequence,PBM E-score
17,AAAGTGCT,0.0641
25,GGTGTTGA,-0.0204

# (next part)

row,Sequence,PBM E-score
1,AAGGCAAT,-0.105
2,ATAGCCTG,-0.137
3,AAGCCCAG,-0.179
4,AACGTACT,0.267
5,TCCAATAA,0.0219
6,TAACATGA,0.201
7,AAGCTTAC,-0.0896
8,TCGGTGAA,0.115
9,CAGTGCTC,-0.125
10,ATTAAGCA,0.0415
11,CGCCCTGC,-0.00866
12,GAGGGAGA,-0.215
13,AAAACCTC,-0.0135
14,ACTGTGCA,0.0139
15,CGAGGTTA,-0.00406
16,CCTTTTTA,0.044
17,TGAGGCCA,-0.111
18,CGTAAATC,0.131
19,AGCCTACG,0.164
20,CATTGGAC,-0.101
21,AATCTATA,0.118
22,ATAGGATG,0.156
23,AAGCGTAC,-0.198
24,CGGGGTGA,0.0917
25,AGCGAGGC,-0.0881

row,Sequence,PBM E-score
1,ATAGTAAG,-0.0777
2,CACGTACA,0.0758
3,AGTCCGCC,-0.228
4,GATTTAGA,0.135
5,CGCAACCG,0.0292
6,GACTTCGA,-0.165
7,GCGAGTTA,0.0994
8,CAGCTTCG,0.0552
9,GGACCACA,-0.0335
10,CGTTTTAG,0.0296
11,ACGAAGTA,0.169
12,AAAGTGTT,0.0602
13,GCTCAGGA,-0.105
14,GGACTGTA,0.107
15,ACATCGCT,0.227
16,CGGCAAAC,0.0403
17,ACTCGGGG,-0.157
18,AGGCAGAT,0.0196
19,AATGCGGT,-0.126
20,CCTCCAGA,-0.177
21,AGGTTCCA,-0.239
22,TAAATGCA,0.0499
23,ATCATTGG,0.208
24,CATCCCTC,-0.081
25,TAATTAAA,0.051

row,Sequence,PBM E-score
1,GGAGTCCA,-0.224
2,CAACGGCG,0.193
3,AGTGTTGC,-0.049
4,TAATCGCA,0.125
5,AGTCAGAG,-0.127
6,AAGAGAAG,0.0526
7,AGCGTTGC,-0.118
8,ACGACAGG,0.05
9,AGGTTCGC,-0.26
10,AATATGTA,0.159
11,ACTCACCC,-0.0575
12,ACTCCGCC,-0.174
13,TAGAACGA,0.26
14,ATACACCC,0.0364
15,CAAGTGAA,-0.12
16,TGAACGAA,0.126
17,GGCGGAAA,-0.0962
18,CCTAGGTA,-0.142
19,AGGCTCAG,-0.243
20,CGGGAAAC,0.118
21,ATACCCCC,-0.192
22,GAGAACCA,-0.0248
23,CCCCCACC,-0.401
24,ATACTCTC,0.1
25,CACGGGAA,-0.00566

# Single entries from the list.
# Entry of CCTAGGTA under PBM E-score: -0.142
# Entry of CACGGGAA under PBM E-score: -0.00566
# Entry of ATACTCTC under PBM E-score: 0.1
# Entry of ACTCCGCC under PBM E-score: -0.174
# Entry of ACGACAGG under PBM E-score: 0.05
# Entry of AGGCTCAG under PBM E-score: -0.243
# Entry of ATACCCCC under PBM E-score: -0.192

# (next part)

row,Sequence,PBM E-score
1,ACCATGGT,-0.133
2,CGGTCGTC,0.113
3,CCCCTTTA,-0.242
4,ACTCTGAG,-0.169
5,CCCAGACG,-0.1
6,CCGTAACC,0.0441
7,ATTGCAGA,0.0469
8,ATCTCTTG,-0.13
9,CTCCCATA,-0.144
10,GCTACGCC,-0.0953
11,GAGGGAAA,-0.0973
12,AGGGCACT,-0.0944
13,CCTCATGC,-0.328
14,ACAGCCAC,-0.109
15,CACCCTGG,-0.33
16,ACTTCATG,-0.026
17,CACCCGTA,0.217
18,ATCGTCCG,0.186
19,AAATTCAT,-0.0345
20,ACGCGCCG,0.0196
21,AATCCATG,-0.097
22,AACAGTTA,0.0138

# From the supplement of paper PMC3334620
